Test results: patent publication US20250208146A1 (UNIVERSITY OF FLORIDA RESEARCH FOUNDATION, published 2025)
These are yes or no findings as the source states them, for the method shown. Some results given as binding are weak or reduced against the parent protein; the word gives no strength.

Sequences of proteins named here, by UniProt entry; tags and fusion partners are left off. A change or cut given only in a name is not applied to a line headed by its entry.
UniProt P01009: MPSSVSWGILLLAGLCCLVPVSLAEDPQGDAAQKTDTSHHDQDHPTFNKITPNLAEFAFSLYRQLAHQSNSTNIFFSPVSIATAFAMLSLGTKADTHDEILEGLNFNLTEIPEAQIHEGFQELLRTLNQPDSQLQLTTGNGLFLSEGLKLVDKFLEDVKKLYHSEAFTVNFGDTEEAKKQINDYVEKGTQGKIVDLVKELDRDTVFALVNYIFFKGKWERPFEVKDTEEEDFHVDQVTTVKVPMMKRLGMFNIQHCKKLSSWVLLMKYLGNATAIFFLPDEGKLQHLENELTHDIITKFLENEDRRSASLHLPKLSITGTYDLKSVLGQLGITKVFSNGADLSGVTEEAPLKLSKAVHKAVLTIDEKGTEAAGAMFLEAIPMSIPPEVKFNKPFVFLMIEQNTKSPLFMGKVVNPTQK

Key:
[1] = target: M Alpha-1 Antitrypsin (M-AAT) (human) (UniProt P01009); assay: sandwich ELISA, M-AAT specific monoclonal adsorbed to wells, purified M-AAT or plasma/serum
[2] = target: M Alpha-1 Antitrypsin (M-AAT) (human) (UniProt P01009); assay: dot blot, 3 µg purified protein, TBS-T (FIG. 3)
[3] = target: M Alpha-1 Antitrypsin (M-AAT) (human) (UniProt P01009); assay: dot blot, purified M-AAT (batch M1-2012, Zemaira, 3 ug by paragraph 67) on nitrocellulose, probed with the purified M-specific mAb, goat anti-mouse IgG-HRP, TBS-T
[4] = target: M Alpha-1 Antitrypsin (M-AAT) (human) (UniProt P01009); assay: native (non-denaturing) PAGE Western blot of M/M plasma, 0.161 ug AAT per lane, probed with the purified M-specific mAb, goat anti-mouse IgG-HRP, HEPES buffers without Tween 20
[5] = target: M Alpha-1 Antitrypsin (M-AAT) (human) (UniProt P01009); assay: Western blot, denaturing SDS-PAGE, purified proteins (FIG. 1)
[6] = target: M Alpha-1 Antitrypsin (M-AAT) (human) (UniProt P01009); assay: Western blot, purified proteins probed with purified antibody (FIG. 1)
[7] = target: M Alpha-1 Antitrypsin (M-AAT) (human) (UniProt P01009); assay: Western blot (denaturing SDS-PAGE, nitrocellulose) of purified M-AAT probed with the M-specific mAb, goat anti-mouse IgG-HRP, chemiluminescence
[8] = target: M Alpha-1 Antitrypsin (M-AAT) (human) (UniProt P01009); assay: native Western blot of plasma (FIG. 4)
[9] = target: M Alpha-1 Antitrypsin (M-AAT) (human) (UniProt P01009); assay: dot blot, purified proteins (FIG. 3)

binding [1]: binds
binding [2]: binds
binding [3]: binds
binding [4]: binds
binding [5]: binds
binding [6]: binds
binding [7]: binds
binding [8]: binds
binding [9]: binds
B1: mouse monoclonal anti-M-AAT antibody (MAAT mAb) (antibody, V domains shown)
VH: QVQLQQPGAELVKPGAPVKLSCKASGYIFTSYWMNWVKQRPGRGLEWIGKIDPSDSETHYNQKFKDKATLTVDKSSSTAFIQLSSLTSEDSAVYYCVRSPGGYPDWWGQGTTLTVSS
VL: DITMTQSPSSIYASLGKRVTITCKASQDINSYLSWFQQKPGKSPKTLIYRANRLVDGVPSRFSGSGSGQDYSLTISSLEYEDMGIYYCLQYDEFPYTFGGGTKLEIKR
